Test results published in patent publication US11884643B2, “Substituted thiophenecarboxamides and analogues as antibacterials agents” (priority 2018, dated 2024).
Some of these results come from one statement about several compounds together.

Tested on: Xanthomonas campestris pv. campestris
Assay: In vivo preventive test on Xanthomonas campestris pv. Campestris (black rot on cabbage)
Conditions: preventive spray on cabbage, inoculation after 72 hours, evaluated 8 or 10 days after inoculation, arithmetic mean of several tests

## Cc1c(C2=NC3(CC3)C(=O)O2)sc(Cl)c1Cl [III.04]
  Efficacy (%) at 31 ppm: at least 60%
  Efficacy (%) at 125 ppm: at least 60%

## O=C1OC(c2sc(Br)c(Br)c2Br)=NC12CC2 [III.06]
  Efficacy (%) at 125 ppm: at least 60%

## O=C1OC(c2sc(Br)c(Br)c2Cl)=NC12CC2 [III.08]
  Efficacy (%) at 31 ppm: at least 60%
  Efficacy (%) at 125 ppm: at least 60%

## O=C1OC(c2sc(Br)c(Br)c2I)=NC12CC2 [III.05]
  Efficacy (%) at 125 ppm: at least 60%

## O=C1OC(c2sc(Cl)c(Cl)c2I)=NC12CC2 [III.09]
  Efficacy (%) at 31 ppm: at least 60%
  Efficacy (%) at 125 ppm: at least 60%

## O=C1OC(c2sc(Cl)c(Cl)c2Cl)=NC12CC2 [III.03]
  Efficacy (%) at 31 ppm: at least 60%

## O=C1OC(c2sc(Br)c(Br)c2F)=NC12CC2 [III.01, 5-(4,5-dibromo-3-fluoro-2-thienyl)-6-oxa-4-azaspiro[2.4]hept-4-en-7-one]
  Efficacy (%) at 31 ppm: at least 60%
  Efficacy (%) at 125 ppm: at least 60%
